Test results: article PMC12140364, “Meisoindigo Acts as a Molecular Glue to Target PKMYT1 for Degradation in Chronic Myeloid Leukemia Therapy” (Advanced Science, 2025)
Where a chain is given by its changes, count along the chain named. No constants are given. Whether binding was seen depends on the method and setting. For some assays here: Binding seen in cells or lysates may run through a third protein. Some entries that bind do so weakly or less than the wild type. For some assays here: Where a sequence is shown, tags or fusion partners need not be part of it.

The chains behind the UniProt entries cited, without tags or fusion partners.
UniProt Q14258: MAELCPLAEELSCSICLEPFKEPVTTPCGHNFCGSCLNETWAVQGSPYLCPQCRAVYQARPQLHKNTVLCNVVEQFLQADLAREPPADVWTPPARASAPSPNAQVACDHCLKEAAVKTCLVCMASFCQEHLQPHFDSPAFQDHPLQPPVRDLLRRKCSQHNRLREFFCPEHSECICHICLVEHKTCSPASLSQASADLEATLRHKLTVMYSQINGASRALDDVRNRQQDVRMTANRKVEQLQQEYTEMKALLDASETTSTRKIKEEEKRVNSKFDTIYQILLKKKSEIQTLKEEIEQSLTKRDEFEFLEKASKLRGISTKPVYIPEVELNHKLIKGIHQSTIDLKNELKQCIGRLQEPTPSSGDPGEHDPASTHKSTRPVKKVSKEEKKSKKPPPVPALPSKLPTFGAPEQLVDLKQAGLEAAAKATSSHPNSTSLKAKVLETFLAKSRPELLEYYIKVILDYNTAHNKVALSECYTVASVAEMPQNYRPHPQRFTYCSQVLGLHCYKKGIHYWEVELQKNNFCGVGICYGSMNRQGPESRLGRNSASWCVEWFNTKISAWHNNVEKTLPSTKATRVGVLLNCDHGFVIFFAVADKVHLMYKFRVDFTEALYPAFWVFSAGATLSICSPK

Legend:
[1] = target: T1, Flag-PKMYT1 (human) (UniProt Q99640); assay: co-IP; HEK293T cells transfected for 24 h, treated with Mei (10 µM) or DMSO for 3 h; lysate on DYKDDDDK-Nanoab-Agarose (anti-Flag) at 4 °C for 3 h, washed 5 times with PBS, immunoblot
T1 sequence: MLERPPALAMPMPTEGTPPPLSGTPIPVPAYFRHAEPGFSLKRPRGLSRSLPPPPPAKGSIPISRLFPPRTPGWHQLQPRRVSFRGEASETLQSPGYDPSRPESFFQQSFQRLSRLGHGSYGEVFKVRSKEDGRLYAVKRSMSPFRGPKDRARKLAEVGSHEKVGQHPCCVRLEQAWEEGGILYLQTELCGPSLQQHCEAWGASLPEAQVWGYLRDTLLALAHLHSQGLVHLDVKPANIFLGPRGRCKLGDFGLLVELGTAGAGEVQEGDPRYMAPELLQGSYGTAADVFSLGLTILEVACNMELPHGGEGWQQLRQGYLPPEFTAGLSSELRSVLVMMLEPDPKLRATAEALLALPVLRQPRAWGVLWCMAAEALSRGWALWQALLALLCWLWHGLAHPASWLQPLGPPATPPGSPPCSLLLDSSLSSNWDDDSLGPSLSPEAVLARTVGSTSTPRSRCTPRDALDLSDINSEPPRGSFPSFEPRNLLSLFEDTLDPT

[2] = target: T2, Flag-PKMYT1 (C301A) (human) (UniProt Q99640); assay: as above
T2 sequence: T1 sequence with C301A

[3] = target: T3, recombinant PKMYT1 (75-362) C301A (human) (UniProt Q99640); assay: MST; PKMYT1 (75-362) protein labelled with RED-NHS 2nd Generation, 40 nM, assay buffer with 0.05% Tween-20; TRIM25 in 2-fold dilution series; Monolith NT.115; without Mei; n = 3; both purified
T3 sequence (chain, labelled with RED-NHS 2nd Generation dye for MST): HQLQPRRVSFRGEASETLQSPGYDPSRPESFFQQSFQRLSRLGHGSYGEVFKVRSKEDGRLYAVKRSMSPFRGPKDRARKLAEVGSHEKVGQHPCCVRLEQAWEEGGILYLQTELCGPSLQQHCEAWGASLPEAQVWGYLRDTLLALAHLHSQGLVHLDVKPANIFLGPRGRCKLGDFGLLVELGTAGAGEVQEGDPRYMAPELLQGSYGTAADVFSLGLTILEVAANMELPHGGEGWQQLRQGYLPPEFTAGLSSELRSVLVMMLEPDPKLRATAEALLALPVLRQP

[4] = target: T3, recombinant PKMYT1 (75-362) C301A (human); assay: MST; labelled PKMYT1 (75-362) protein preincubated with Mei (50 µM) for 30 min, then 40 nM in assay buffer with 0.05% Tween-20; TRIM25 in 2-fold dilution series; Monolith NT.115; n = 3; both purified

binding [1] | binding [2] | binding [3] | binding [4] | Substance
binds |  |  |  | Myc-TRIM25 (from UniProt Q14258 1-630) (enzyme)
binds | binds |  |  | TRIM25 (in HEK293T cells overexpressing only Flag-PKMYT1) (from UniProt Q14258 1-630) (enzyme)
 |  | binds | binds | TRIM25 protein (Origene, TP303757) (from UniProt Q14258 1-630) (enzyme)
